Results are given in words; binding and its absence hold for the method and conditions named. Binding seen in cells or lysates may run through a third protein. Some results given as binding are weak or reduced against the parent protein; the word gives no strength.
Columns and labels:
[1] = molecular target: ABCA1-GFP (ATP-binding cassette transporter A1 fused to GFP) (UniProt O95477); test: co-IP; GFP-Trap agarose on RIPA lysates of HeLa (ABCA1-GFP) or HeLa (negative) cells, overnight at 4°C; western blotting
[2] = molecular target: ABCA1 (endogenous, immortalized mouse astrocytes) (mouse (endogenous in immortalized astrocytes)) (UniProt P41233); test: co-IP; anti-ABCA1 antibody or species-matched IgG with Dynabeads Protein G on RIPA lysates of immortalized astrocytes, overnight at 4°C; western blotting

The chains behind the UniProt entries cited, without tags or fusion partners.
UniProt O95477: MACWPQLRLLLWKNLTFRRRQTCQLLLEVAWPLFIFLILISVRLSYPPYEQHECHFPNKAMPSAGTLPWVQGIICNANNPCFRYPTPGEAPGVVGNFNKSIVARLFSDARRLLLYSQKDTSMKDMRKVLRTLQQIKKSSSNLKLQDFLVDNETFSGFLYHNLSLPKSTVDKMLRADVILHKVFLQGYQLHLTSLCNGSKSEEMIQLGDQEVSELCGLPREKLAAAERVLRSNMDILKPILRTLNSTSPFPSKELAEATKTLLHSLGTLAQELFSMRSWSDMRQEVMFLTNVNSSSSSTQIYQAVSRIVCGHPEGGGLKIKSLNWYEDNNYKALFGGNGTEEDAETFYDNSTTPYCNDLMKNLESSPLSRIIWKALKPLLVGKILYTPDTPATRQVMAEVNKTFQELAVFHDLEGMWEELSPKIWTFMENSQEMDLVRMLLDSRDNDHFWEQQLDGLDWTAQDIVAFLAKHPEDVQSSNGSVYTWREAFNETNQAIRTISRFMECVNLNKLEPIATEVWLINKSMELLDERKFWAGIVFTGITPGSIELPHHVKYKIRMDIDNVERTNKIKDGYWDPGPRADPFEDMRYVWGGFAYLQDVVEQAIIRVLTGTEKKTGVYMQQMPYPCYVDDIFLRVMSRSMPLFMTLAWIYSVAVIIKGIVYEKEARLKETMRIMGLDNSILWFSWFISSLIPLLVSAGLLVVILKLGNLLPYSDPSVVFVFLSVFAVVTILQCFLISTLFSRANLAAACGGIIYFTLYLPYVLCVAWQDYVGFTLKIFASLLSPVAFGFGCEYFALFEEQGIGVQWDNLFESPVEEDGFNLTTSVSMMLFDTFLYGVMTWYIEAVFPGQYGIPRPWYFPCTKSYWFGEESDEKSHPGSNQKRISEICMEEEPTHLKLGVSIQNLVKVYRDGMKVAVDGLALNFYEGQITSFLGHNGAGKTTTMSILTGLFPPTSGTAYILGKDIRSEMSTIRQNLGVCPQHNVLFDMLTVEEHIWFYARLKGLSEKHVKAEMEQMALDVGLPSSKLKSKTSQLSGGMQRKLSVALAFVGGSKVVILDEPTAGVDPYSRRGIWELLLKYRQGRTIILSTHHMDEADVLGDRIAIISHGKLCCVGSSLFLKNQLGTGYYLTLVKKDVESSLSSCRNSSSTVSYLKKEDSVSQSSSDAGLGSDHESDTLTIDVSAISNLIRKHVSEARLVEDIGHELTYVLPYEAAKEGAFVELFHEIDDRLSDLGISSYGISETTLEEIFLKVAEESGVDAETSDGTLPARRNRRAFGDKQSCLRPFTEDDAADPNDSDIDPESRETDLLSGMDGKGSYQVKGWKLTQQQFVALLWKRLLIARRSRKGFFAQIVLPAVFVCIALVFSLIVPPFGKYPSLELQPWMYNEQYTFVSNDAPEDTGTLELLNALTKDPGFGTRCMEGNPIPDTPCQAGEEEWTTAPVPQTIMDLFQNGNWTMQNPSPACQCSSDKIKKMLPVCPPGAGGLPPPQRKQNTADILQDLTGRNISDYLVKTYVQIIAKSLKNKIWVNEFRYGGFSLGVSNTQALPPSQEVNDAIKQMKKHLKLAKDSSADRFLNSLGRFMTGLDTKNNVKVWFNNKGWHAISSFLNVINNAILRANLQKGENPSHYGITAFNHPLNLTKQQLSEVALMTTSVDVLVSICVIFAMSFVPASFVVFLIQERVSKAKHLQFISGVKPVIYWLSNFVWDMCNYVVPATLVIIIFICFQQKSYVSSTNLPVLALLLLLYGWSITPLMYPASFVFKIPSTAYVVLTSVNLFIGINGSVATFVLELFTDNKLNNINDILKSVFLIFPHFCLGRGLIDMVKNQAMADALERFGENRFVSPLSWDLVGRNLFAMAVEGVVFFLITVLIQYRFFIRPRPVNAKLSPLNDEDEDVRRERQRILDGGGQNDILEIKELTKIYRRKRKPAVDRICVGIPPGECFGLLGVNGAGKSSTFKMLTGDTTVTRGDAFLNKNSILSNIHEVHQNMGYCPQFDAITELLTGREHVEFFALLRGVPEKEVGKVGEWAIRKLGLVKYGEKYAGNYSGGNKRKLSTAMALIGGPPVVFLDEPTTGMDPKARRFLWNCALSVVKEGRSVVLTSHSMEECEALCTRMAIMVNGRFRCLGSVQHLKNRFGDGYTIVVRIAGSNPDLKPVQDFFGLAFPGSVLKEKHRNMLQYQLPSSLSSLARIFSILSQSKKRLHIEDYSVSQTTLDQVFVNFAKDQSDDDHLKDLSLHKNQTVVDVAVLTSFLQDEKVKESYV
UniProt P41233: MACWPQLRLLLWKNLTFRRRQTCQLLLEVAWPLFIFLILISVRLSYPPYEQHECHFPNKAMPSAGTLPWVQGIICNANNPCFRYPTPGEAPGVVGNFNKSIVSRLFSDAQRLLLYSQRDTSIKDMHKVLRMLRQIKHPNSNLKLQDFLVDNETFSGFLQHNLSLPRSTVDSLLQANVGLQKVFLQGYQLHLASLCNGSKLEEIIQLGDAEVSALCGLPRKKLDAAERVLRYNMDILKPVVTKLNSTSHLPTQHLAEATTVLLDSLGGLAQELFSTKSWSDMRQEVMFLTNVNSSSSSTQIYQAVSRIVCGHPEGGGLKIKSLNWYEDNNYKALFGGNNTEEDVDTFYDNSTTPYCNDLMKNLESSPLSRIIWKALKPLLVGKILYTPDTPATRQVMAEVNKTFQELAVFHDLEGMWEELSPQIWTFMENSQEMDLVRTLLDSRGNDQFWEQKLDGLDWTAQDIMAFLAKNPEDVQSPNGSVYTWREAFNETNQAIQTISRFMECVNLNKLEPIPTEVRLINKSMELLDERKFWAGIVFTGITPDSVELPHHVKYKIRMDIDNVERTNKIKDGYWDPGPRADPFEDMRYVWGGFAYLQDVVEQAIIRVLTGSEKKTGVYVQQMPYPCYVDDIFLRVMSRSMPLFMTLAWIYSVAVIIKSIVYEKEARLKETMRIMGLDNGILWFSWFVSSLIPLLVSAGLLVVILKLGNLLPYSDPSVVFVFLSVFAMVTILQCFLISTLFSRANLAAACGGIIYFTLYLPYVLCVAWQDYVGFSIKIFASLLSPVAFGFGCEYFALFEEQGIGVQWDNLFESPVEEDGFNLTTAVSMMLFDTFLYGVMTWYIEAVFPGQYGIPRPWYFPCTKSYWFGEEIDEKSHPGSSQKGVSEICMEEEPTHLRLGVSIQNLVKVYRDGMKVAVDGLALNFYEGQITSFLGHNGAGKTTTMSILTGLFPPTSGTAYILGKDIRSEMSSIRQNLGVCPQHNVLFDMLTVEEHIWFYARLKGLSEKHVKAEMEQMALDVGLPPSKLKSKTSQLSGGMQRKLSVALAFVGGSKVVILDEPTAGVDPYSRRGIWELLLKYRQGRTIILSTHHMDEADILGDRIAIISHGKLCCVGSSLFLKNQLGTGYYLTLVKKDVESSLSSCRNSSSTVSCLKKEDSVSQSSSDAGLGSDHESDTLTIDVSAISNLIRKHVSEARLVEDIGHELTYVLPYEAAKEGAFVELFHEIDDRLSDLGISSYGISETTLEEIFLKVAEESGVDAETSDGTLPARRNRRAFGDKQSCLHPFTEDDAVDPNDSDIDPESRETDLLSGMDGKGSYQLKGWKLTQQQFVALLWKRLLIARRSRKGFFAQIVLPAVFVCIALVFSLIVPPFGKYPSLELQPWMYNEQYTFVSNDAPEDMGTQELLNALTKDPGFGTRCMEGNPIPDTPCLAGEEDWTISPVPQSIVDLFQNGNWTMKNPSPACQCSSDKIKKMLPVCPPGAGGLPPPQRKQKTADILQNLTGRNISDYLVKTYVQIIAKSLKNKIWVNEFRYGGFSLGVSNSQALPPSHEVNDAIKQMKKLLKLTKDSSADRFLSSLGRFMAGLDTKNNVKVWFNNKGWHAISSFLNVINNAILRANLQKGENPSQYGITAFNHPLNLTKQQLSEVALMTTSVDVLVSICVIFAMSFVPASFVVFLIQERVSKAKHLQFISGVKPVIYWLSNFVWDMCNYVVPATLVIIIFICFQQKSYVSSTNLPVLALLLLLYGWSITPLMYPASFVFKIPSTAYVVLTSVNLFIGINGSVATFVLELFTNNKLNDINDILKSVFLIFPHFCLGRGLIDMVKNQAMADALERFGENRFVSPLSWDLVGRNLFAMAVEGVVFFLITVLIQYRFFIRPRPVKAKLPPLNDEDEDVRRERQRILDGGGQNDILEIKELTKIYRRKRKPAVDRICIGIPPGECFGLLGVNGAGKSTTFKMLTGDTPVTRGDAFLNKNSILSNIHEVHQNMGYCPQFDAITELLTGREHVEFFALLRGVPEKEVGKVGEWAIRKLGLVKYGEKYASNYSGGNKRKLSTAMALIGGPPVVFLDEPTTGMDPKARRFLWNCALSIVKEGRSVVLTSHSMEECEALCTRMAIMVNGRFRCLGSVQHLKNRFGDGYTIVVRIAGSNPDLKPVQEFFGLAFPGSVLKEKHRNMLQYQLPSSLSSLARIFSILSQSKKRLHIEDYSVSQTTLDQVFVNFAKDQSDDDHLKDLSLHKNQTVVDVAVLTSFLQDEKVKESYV
UniProt P63010: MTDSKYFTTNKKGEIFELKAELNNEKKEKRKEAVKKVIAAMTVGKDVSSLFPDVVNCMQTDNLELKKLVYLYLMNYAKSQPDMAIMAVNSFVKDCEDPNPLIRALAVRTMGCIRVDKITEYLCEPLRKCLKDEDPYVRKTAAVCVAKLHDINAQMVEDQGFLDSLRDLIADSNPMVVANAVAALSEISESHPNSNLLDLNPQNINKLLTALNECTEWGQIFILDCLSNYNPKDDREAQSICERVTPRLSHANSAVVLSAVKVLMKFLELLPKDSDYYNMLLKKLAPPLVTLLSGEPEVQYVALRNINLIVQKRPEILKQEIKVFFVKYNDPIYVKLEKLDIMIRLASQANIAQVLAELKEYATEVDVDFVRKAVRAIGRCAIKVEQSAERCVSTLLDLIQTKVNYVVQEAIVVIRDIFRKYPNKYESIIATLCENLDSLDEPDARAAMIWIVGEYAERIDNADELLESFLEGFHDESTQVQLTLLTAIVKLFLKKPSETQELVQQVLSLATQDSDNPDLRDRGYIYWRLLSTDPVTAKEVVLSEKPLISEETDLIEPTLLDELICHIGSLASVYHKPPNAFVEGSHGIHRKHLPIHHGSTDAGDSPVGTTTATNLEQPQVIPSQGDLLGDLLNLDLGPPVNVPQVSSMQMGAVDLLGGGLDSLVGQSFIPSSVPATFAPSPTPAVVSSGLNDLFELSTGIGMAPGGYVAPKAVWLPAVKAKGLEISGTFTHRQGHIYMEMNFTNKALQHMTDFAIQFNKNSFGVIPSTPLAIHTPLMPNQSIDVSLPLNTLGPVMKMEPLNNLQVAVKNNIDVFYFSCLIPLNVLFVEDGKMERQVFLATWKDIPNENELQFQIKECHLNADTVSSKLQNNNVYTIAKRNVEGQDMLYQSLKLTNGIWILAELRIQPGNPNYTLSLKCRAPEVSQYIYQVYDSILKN

adaptor-related protein complex 2 subunit beta 1 (from UniProt P63010 1-937)
binding [1]: binds

caveolin-1 (from UniProt Q03135 1-178)
binding [1]: binds

B1: caveolin-1 (endogenous, immortalized mouse astrocytes) (protein, UniProt P49817 1-178)
chain: MSGGKYVDSEGHLYTVPIREQGNIYKPNNKAMADEVTEKQVYDAHTKEIDLVNRDPKHLNDDVVKIDFEDVIAEPEGTHSFDGIWKASFTTFTVTKYWFYRLLSTIFGIPMALIWGIYFAILSFLHIWAVVPCIKSFLIEIQCISRVYSIYVHTFCDPLFEAIGKIFSNIRISTQKEI
binding [2]: binds
